In PMC6373471 one finds binding data, which are given here for 10 molecules.

Protein sequences, listed by entry. Tags and fused reporters are not part of them.
UniProt Q9SQI2: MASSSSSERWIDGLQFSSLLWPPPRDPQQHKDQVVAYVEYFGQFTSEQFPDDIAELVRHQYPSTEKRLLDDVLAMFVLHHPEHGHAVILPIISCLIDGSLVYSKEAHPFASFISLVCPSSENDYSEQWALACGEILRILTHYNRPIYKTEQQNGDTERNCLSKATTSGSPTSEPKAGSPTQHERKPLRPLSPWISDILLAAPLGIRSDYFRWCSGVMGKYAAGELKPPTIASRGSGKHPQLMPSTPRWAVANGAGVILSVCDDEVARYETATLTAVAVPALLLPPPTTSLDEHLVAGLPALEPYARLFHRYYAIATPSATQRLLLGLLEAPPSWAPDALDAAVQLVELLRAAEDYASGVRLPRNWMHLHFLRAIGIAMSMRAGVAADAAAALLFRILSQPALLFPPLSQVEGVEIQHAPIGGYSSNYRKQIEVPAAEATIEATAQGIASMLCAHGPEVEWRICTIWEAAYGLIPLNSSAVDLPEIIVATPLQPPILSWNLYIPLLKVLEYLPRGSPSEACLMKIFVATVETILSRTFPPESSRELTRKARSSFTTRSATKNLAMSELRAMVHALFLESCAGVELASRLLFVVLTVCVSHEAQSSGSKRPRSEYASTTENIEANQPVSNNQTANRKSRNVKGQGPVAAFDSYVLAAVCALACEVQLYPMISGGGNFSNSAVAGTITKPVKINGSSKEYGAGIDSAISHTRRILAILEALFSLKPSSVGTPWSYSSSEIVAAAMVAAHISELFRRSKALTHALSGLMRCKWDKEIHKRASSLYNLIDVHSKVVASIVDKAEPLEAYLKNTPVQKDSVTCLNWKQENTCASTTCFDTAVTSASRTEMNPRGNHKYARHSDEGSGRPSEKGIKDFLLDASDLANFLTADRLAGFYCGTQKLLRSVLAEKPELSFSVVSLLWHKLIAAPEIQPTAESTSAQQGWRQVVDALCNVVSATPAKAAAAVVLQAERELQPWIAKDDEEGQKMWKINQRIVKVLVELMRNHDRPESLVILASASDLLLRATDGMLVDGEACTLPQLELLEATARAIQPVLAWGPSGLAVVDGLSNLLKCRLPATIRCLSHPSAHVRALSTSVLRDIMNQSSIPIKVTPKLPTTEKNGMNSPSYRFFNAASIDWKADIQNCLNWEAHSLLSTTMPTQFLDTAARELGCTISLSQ

No constants are given. Whether binding was seen depends on the method and setting. Binding seen in cells or lysates may run through a third protein. These calls come from enrichment with a bait or labelling near it, and not all partners need be listed. For part of these data: Where a sequence is shown, tags or fusion partners need not be part of it.

The target of experiment [1] is GIGANTEA with C-terminal 3xFLAG-6xHis tag (GI‐3F6H) (Arabidopsis thaliana) (UniProt Q9SQI2). Description: affinity purification with mass spectrometry; time series study: tandem affinity purification (FLAG and His tags) of GI-3F6H from rosettes grown in short days, six time points plus ZT31; on-bead digest, label-free quantitation; WT plants as control.
The target is the same in experiment [2]. Description: affinity purification with mass spectrometry; preliminary study: tandem affinity purification of GI-3F6H, silver-stained gel, LC-MS of excised bands; plants harvested at ZT8.
The target is the same in experiment [3]. In words: affinity purification with mass spectrometry; qualitative study: tandem affinity purification (FLAG and His tags) of GI-3F6H from plants grown in long days and harvested at ZT13 on day 14; RIPA or SII buffer; on-bead digest, peptide counts; WT plants as control.

B1: EMB2719 (protein, UniProt Q9LNU4 1-488)
chain: MTQDVEMKDNNTPSQSIISSSTSTMQNLKEIAALIDTGSYTKEVRRIARAVRLTIGLRQKLTGSVLSSFLDFALVPGSEAHSRLSSFVPKGDEHDMEVDTASSATQAAPSKHLPAELEIYCYFIVLLFLIDQKKYNEAKACSSASIARLKNVNRRTIDVIASRLYFYYSLSYEQTGDLAEIRGTLLALHHSATLRHDELGQETLLNLLLRNYLHYNLYDQAEKLRSKAPRFEAHSNQQFCRYLFYLGKIRTIQLEYTDAKESLLQAARKAPIAALGFRIQCNKWAILVRLLLGEIPERSIFTQKGMEKALRPYFELTNAVRIGDLELFRTVQEKFLDTFAQDRTHNLIVRLRHNVIRTGLRNISISYSRISLPDVAKKLRLNSENPVADAESIVAKAIRDGAIDATIDHKNGCMVSKETGDIYSTNEPQTAFNSRIAFCLNMHNEAVRALRFPPNTHKEKESDEKRRERKQQEEELAKHMAEEDDDDF
Take B1: the binding result in experiment [1] is recorded as “binds”.

B2: phosphofructokinase family protein (AT1G20950) (protein, UniProt Q9SYP2 1-614)
chain: MDSDFGIPRELSPLQQLRSQYKPELPPCLQGTTVRVELGDGTTVAEAADSHTMARAFPHTLGQPLAHFLRETAQVPDAHIITELPSVRVGIVFCGRQAPGGHNVIWGLFEALKVHNAKSTLLGFLGGSEGLFAQKTLEITDDILQTYKNQGGYDLLGRTKDQIKTTEQVNAALKACTDLKLDGLVIIGGVISNTDAAHLAEFFAAAKCSTKVVGVPVTTNGDLKNQFVEANVGFDTICKVNSQLISNACTDALSAEKYYYFIRLMGRKHSHVALECTLQSHPNMVILGEEVAASKLTIFDIAKQICDAVQARAVEDKNHGVILIPEGLIVSIPEVYALLKEIHGLLRQGVSADKISTQLSPWSSALFEFLPPFIKKQLLLHPESDDSAQLSQIETEKLLAYLVETEMNKRLKEGTYKGKKFNAICHFFGYQARGSLPSKFDCDYAYVLGHICYHILAAGLNGYMATVTNLKSPVNKWKCGATPITAMMTVKHWSQDASYTLTSIGRPAIHPAMVDLKGKAYDLLRQNAQKFLMEDLYRNPGPLQYDGPGADAKAVSLCVEDQDYMGRIKKLQEYLDQVRTIVKPGCSQDVLKAALSVMASVTDVLTTISSNGGQ
As to B2, the binding result in experiment [1] is listed as “binds”.

B3: CAT3 (protein, UniProt Q42547 1-492)
chain: MDPYKYRPSSAYNAPFYTTNGGAPVSNNISSLTIGERGPVLLEDYHLIEKVANFTRERIPERVVHARGISAKGFFEVTHDISNLTCADFLRAPGVQTPVIVRFSTVVHERASPETMRDIRGFAVKFYTREGNFDLVGNNTPVFFIRDGIQFPDVVHALKPNPKTNIQEYWRILDYMSHLPESLLTWCWMFDDVGIPQDYRHMEGFGVHTYTLIAKSGKVLFVKFHWKPTCGIKNLTDEEAKVVGGANHSHATKDLHDAIASGNYPEWKLFIQTMDPADEDKFDFDPLDVTKIWPEDILPLQPVGRLVLNRTIDNFFNETEQLAFNPGLVVPGIYYSDDKLLQCRIFAYGDTQRHRLGPNYLQLPVNAPKCAHHNNHHEGFMNFMHRDEEINYYPSKFDPVRCAEKVPTPTNSYTGIRTKCVIKKENNFKQAGDRYRSWAPDRQDRFVKRWVEILSEPRLTHEIRGIWISYWSQADRSLGQKLASRLNVRPSI
B3: the binding entry in experiment [1] and in experiment [2] was “binds” in each case.

B4: KASI (protein, UniProt P52410 47-473)
chain: ASTVSAPKRETDPKKRVVITGMGLVSVFGNDVDAYYEKLLSGESGISLIDRFDASKFPTRFGGQIRGFSSEGYIDGKNERRLDDCLKYCIVAGKKALESANLGGDKLNTIDKRKAGVLVGTGMGGLTVFSEGVQNLIEKGHRRISPFFIPYAITNMGSALLAIDLGLMGPNYSISTACATSNYCFYAAANHIRRGEADMMIAGGTEAAIIPIGLGGFVACRALSQRNDDPQTASRPWDKARDGFVMGEGAGVLVMESLEHAMKRGAPIVAEYLGGAVNCDAHHMTDPRADGLGVSSCIERCLEDAGVSPEEVNYINAHATSTLAGDLAEINAIKKVFKSTSGIKINATKSMIGHCLGAAGGLEAIATVKAINTGWLHPSINQFNPEQAVDFDTVPNEKKQHEVDVAISNSFGFGGHNSVVAFSAFKP
As for B4, the binding result in experiment [1] and in experiment [2] was “binds” in each case.

B5: RTM3 (protein, UniProt D5K228 1-301)
chain: MGKQFDKKITWTIKNFASLLSDLIYSDHFVVGGCKWHLRAYPKGYNNANSLSLFLGVAVPTSLPSGWRRHTKFRLTLVNQLSDKLSQSKLNELEQWFDEKTTNWGLSSMCPLNEIHAKDSGFLLNGELKIVVEIKVLETIGKLDVTEETSTITETVDVNGFQLLPSQAKSVSRMFAKHPELASDLRPKNPNLRTGYMSLLLSLIETLSQLPQQMSKDDLLDAYDALGSMRDAGFKLDWLEKKLYEVSEKKENEEASETGLQEMEEELKDMKQKCLEMEALVEKEKAKVSTAKAPISFDDIV
Consider B5, for which, in experiment [3], the binding result is “binds”.

B6: RPN10 (protein, UniProt P55034 1-386)
chain: MVLEATMICIDNSEWMRNGDYSPSRLQAQTEAVNLLCGAKTQSNPENTVGILTMAGKGVRVLTTPTSDLGKILACMHGLDVGGEINLTAAIQIAQLALKHRQNKNQRQRIIVFAGSPIKYEKKALEIVGKRLKKNSVSLDIVNFGEDDDEEKPQKLEALLTAVNNNDGSHIVHVPSGANALSDVLLSTPVFTGDEGASGYVSAAAAAAAAGGDFDFGVDPNIDPELALALRVSMEEERARQEAAAKKAADEAGQKDKDGDTASASQETVARTTDKNAEPMDEDSALLDQAIAMSVGDVNMSEAADEDQDLALALQMSMSGEESSEATGAGNNLLGNQAFISSVLSSLPGVDPNDPAVKELLASLPDESKRTEEEESSSKKGEDEKK
Turning to B6, in experiment [1], the binding result was “binds”.

B7: PDX1 (protein, UniProt Q8L940 1-309)
chain: MEGTGVVAVYGNGAITEAKKSPFSVKVGLAQMLRGGVIMDVVNAEQARIAEEAGACAVMALERVPADIRAQGGVARMSDPQMIKEIKQAVTIPVMAKARIGHFVEAQILEAIGIDYIDESEVLTLADEDHHINKHNFRIPFVCGCRNLGEALRRIREGAAMIRTKGEAGTGNIIEAVRHVRSVNGDIRVLRNMDDDEVFTFAKKLAAPYDLVMQTKQLGRLPVVQFAAGGVATPADAALMMQLGCDGVFVGSGIFKSGDPARRARAIVQAVTHYSDPEMLVEVSCGLGEAMVGINLNDEKVERFANRSE
For the molecule B7, the binding entry in experiment [1] is “binds”.

B8: GSTU7 (protein, UniProt Q9ZW24 1-227)
chain: MAERSNSEEVKLLGMWASPFSRRIEIALTLKGVSYEFLEQDITNKSSLLLQLNPVHKMIPVLVHNGKPISESLVILEYIDETWRDNPILPQDPYERTMARFWSKFVDEQIYVTAMKVVGKTGKERDAVVEATRDLLMFLEKELVGKDFLGGKSLGFVDIVATLVAFWLMRTEEIVGVKVVPVEKFPEIHRWVKNLLGNDVIKKCIPPEDEHLKYIRARMEKLNIKSA
For the molecule B8, the binding entry in experiment [3] was “binds”.

B9: FIB2 (protein, UniProt Q94AH9 1-320)
chain: MRPPLTGSGGGFSGGRGRGGYSGGRGDGGFSGGRGGGGRGGGRGFSDRGGRGRGRGPPRGGARGGRGPAGRGGMKGGSKVIVEPHRHAGVFIAKGKEDALVTKNLVPGEAVYNEKRISVQNEDGTKTEYRVWNPFRSKLAAAILGGVDNIWIKPGAKVLYLGAASGTTVSHVSDLVGPEGCVYAVEFSHRSGRDLVNMAKKRTNVIPIIEDARHPAKYRMLVGMVDVIFSDVAQPDQARILALNASYFLKSGGHFVISIKANCIDSTVPAEAVFQTEVKKLQQEQFKPAEQVTLEPFERDHACVVGGYRMPKKPKAATAA
As to B9, the binding entry in experiment [1] was “binds”.

B10: AT1G80870 (protein, UniProt Q9SAH3 1-692)
chain: MPSRPNPTRPKLFHNRTKTLFLILTISSSLVIFFAILYFIYHLWISLLNRSRTIPFDVAAASPLKLQLFTYKELKLATNDFDESNVIGKGGSGTVFRGITRDGKLFAVKRLDNLSIQTETEFQNELQILGGLKSSFLVTLLGYCVEKNHRFLIYEYMPNKSLQELLFNEDGDSCLNWERRFGIILDVAKALEFMHFGCDPPVIHGDIKPSNVLLDSEFRAKISDFGLSRVKVEGGYGVDLFSQELSGNFGGESTPQTAIGTPTHHEVDFALALQASSSSKNSRTSRNIKEMSLNSMSLAMDGETKGKEVSNDVVLSCEDHEFDQGKEMNLLSPNSVLDLGKGSKQWGRDWWWKQEGSGELCSKDYVREWIGSQIDTANPDWDDDKKVITTPELGVSTRTIDKAEHRDESGLNESRFDTLEEKFAKEEISERKNKRSKNKKKKHRNMEEWWKEEEHQEEMNNKKKIGVLRIKFKNHLKFPHFRYCFRQKGENSVHDREGEAAGEFSFRRGWRRKSNSSSKKKKKNNNGSMGSEMWSGDLFSRELSSTTSMRGTLCYIAPEYGGGCCYLMEKGDIYSFGVLILVIVSGRRPLHVLASPMKLEKANLVSWCRQLAQSGNVLELVDEKLKDGYNKEEAGLCINLALACLQKAPELRPDVSEVVRILRGEMDISSTAFEFSPSPPGKVYGSRSKRRS
As to B10, the binding entry in experiment [3] is reported as “binds”.
